{"source": "patent US20070179162A1", "about": "“Triazolopyrimdines” (priority 2003, published 2007)", "key": {"Podosphaera ieucotricha": {"system": "Podosphaera ieucotricha", "experiment": "Podosphaera test (apple)/protective", "assay_type": "in vivo", "details": "apple plants, protective, applied quantity 100 g/ha, analysis 10 days after inoculation; 100% = no infection"}, "Venturia inaequalis": {"system": "Venturia inaequalis", "experiment": "Venturia test (apple)/protective", "assay_type": "in vivo", "details": "apple plants, protective, applied quantity 100 g/ha, analysis 10 days after inoculation; 100% = no infection"}}, "note": "Some results were stated once for a whole list of compounds, not compound by compound."}
{"smiles": "CC1CCC(c2c(-c3ncncc3Cl)c(Cl)nc3ncnn23)CC1", "note": "(centres unmarked) [Example 1, 5-chloro-6-(5-chloro-4-pyrimidinyl)-7-(4-methylcyclohexyl)[1,2,4]triazolo[1,5-a]pyrimidine]", "values": [{"measurement": "activity", "setting": "Podosphaera ieucotricha", "value": "over 85%"}, {"measurement": "activity", "setting": "Venturia inaequalis", "value": "≥ 90", "unit": "%"}]}
